Laboratory results: patent publication US20170216252A1, “ANTI-BACTERIAL PYRUVATE KINASE MODULATOR COMPOUNDS, COMPOSITIONS, USES AND METHODS” (SIMON FRASER UNIVERSITY, priority 2014, published 2017)
Some entries share one result that the patent states for a list of compounds.

Chains of the proteins cited; added tags and fusions are not shown. Lines headed by an entry give the natural chain unless they say otherwise; changes in a name come on top.
UniProt Q6GG09: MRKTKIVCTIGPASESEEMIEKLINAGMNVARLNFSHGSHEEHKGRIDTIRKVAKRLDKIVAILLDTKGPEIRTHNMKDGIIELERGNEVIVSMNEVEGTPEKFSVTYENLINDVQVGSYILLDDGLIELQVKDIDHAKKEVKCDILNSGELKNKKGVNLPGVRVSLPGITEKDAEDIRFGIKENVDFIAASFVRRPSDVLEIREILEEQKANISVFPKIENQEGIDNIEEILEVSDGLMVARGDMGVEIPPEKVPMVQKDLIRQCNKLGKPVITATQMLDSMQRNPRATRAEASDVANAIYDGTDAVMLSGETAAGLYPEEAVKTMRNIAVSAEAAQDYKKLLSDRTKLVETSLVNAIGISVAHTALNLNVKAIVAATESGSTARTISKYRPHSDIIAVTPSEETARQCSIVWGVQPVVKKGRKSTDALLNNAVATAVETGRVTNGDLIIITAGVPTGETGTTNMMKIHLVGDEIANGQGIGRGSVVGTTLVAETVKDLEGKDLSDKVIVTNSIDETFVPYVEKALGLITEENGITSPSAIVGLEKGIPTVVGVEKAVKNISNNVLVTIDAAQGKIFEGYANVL

Biological target: T1, MRSA PK (Staphylococcus aureus, UniProt Q6GG09)
T1 construct: His tag (pET-28a(+) vector) (N); made in house; host or cells: E. coli BL-21 (DE3)
Assay: MRSA PK activity, continuous LDH-coupled assay
Type: biochemical, S. aureus (MRSA strain Sanger 252)
Settings: for fold decrease in activity: compared to 10a
Description: Genomic DNA of MRSA strain Sanger 252 extracted using DNeasy Tissue Kit™ (Qiagen™) was used as a template to generate the His-tagged MRSA PK. Human cDNA from MCF-7 breast cancer cell line (courtesy of Dr. J Wong, BC Cancer Research Center (Vancouver, Canada) was used as a template to generate the full-length human M2 PK enzyme. The following primer sets were used creating appropriate restriction sites (NdeI and XhoI sites underlined): For cloning of MRSA PK: M27F 5′-[…]-3′ and M27R 5′-[…]-3′, for cloning of human M2 PK isoform: hM2F 5′-[…]-3′ and hM2R 5′-[…]-3′. The resulting PCR fragments for each construct were cloned into the NdeI and XhoI unique sites of the bacterial expression vector pET-28a (+) (Novagen™). […] The sequence and the correct reading frame of all constructs were verified by sequencing. Human M1, R and L PK constructs in pET-28-a(+) vectors (courtesy of Dr. L. Cantley, Harvard Medical, School (Boston, USA)) were used to generate relevant recombinant His-tagged human PK isoforms.
MRSA and human constructs in pET-28a(+) were used to express relevant recombinant PK proteins in E. coli BL-21 (DE3). […] Briefly, cells were grown to an absorbance of 0.4-0.5 at 600 nm in 2×YT medium, then induced with 0.1 mM IPTG for 3 h at 20° C. […] Purity and physical integrity of proteins were assessed using SDS-polyacrylamide gel electrophoresis (SDS-PAGE) followed by coomassie blue staining. […]
Candidate MRSA PK inhibitors were assayed for their ability to inhibit enzymatic activities of MRSA and human PKs. PK activity was determined using a continuous assay coupled to lactate dehydrogenase (LDH) in which the change in absorbance at 340 nm owing to oxidation of NADH was measured using a Benchmark Plus™ microplate spectrophotometer (Bio-Rad Laboratories, Hercules, Calif.). […] PK activity proportional to the rate of change at 340 nm was expressed as specific activity (μmol/min/mg), which is defined as the amount of PK that catalyzes the formation of one micromole of either product per minute. […]

SMILES | fold decrease in activity | fold more potent (compared to 33c)
Brc1ccc2cc(-c3nc4ccccc4s3)[nH]c2c1 [Compound 22a, 2-(6-Bromo-1H-indol-2-yl)benzo[d]thiazole] | 5-8 fold | –
Brc1ccc2cc(-c3cc4ccccc4o3)[nH]c2c1 [Compound 22b, 2-(Benzofuran-2-yl)-6-bromo-1H-indole] | 5-8 fold | –
COc1cc(-c2cc3ccccc3[nH]2)ccc1-c1cc2ccc(Br)cc2[nH]1 [Compound 33e, 2-(4-(1H-indol-2-yl)-2-methoxyphenyl)-6-bromo-1H-indole] | – | 2-3 fold
